Results of single-concentration screens

Data taken from ChEMBL document CHEMBL3988442, “University of Dundee, Small-Polar-MMV Screening Library” (2021).

A: 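Growth of Mycobacterium tuberculosis over 3 days (7H9 medium with glucose and tyloxapol); the read-out is not stated. Compounds at 50 µM. Direction is inferred from retests: higher values go with more growth inhibition. About 69,000 compounds were tested under these conditions; 1.1% (about 760) showed 50% or more at least once.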
B: 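Whole-cell growth test on Mycobacterium tuberculosis, read after 4 days in a medium based on cholesterol and the lipid DPPC; the read-out is not stated. Compounds at 50 µM. Direction is inferred from retests: higher values go with more growth inhibition. Size under these conditions: about 69,000 compounds, about 370 of them at 50% or above in at least one test.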

The filed quantity is “Percent Effect” (%). The controls that fix the scale are not given in the record; negative values are as filed. The compounds are a random part of those screened. Two or more numbers in one place are separate tests of the same structure; such repeats can differ widely.

* CC(C)C[C@H](NC(=O)CNC(=O)OC(C)(C)C)C(=O)OC(C)(C)C | A: 23.49%; B: 5.045%
* [H][C@@]12CN(Cc3ccco3)C[C@]1([H])OCCN2c1ccnc(N(C)C)n1 | A: 4.3%; B: 12.78%
* CCc1ccc2ncn(Cc3ncc[nH]3)c(=O)c2c1 | A: 3.098%; B: -10.14%
* O=C(c1cccc(Cn2ccnc2)c1)N1CCCC(n2cccn2)C1 (centres undefined) | A: 8.62%; B: 9.165%
* Cc1cnn(CC2CCCN2C(=O)c2cccc(CC#N)c2)c1 (centres undefined) | A: 15.91%; B: 7.573%
* CC(C)N(C)Cc1ncn2c1CN(C(=O)C1CCCO1)CCC2 (centres undefined) | A: -6.497%; B: -7.503%
* Cc1nn(C)cc1-c1ccnc(N(C)Cc2cnn(C)c2)n1 | A: 6.637%; B: 5.985%
* CNC(=O)c1cc(C2CCCNC2)n[nH]1.Cl (centres undefined) | A: -33.7%; B: 12.34%
* CNc1cc(C)nc(C2COCCN2CCOc2ccc(F)cc2)n1 (centres undefined) | A: 17.67%; B: 7.272% and 11.8%
* O=C(NCc1cn2c(n1)CN(Cc1ccncc1)CC2)C1CCC1.O=C(O)C(F)(F)F.O=C(O)C(F)(F)F | A: -11.89% and -36.73%; B: -12.6%
* CCC(C)NC(=O)Cn1c(Nc2cc(C)cc(C)c2)nc(C)cc1=O (centres undefined) | A: 10.44%; B: -10.13%
* CC(C)c1cc(C(=O)NCCc2nc3c(s2)CCC3)n(C)n1 | A: 34.29%; B: 2.521% and 0.5439%
* N#Cc1nccnc1N1CCC(Cc2ccccc2)C1 (centres undefined) | A: 13.57%; B: 23.05%
* CC(C)N(C)C(=O)C1CCC2(CCNCC2)O1.Cl (centres undefined) | A: -5.731%; B: 11.04%
* COC1COC2(CCN(C(=O)c3ccccc3F)CC2)C1 (centres undefined) | A: -2.162%; B: 2.787%
* CCC(C)(C)NC(=O)CN1C=Nc2ccccc2S1(=O)=O | A: -13.38%; B: -6.544%
* NC(=O)C1CCN(CC(=O)NCCn2cc(Cl)cn2)CC1 | A: 0.2843%; B: 16.54%
* Cc1noc(C)c1CSCc1nc(N)c2ccccc2n1 | A: -1.659% and -4.094%; B: -1.146%
* O[C@H]1CN(c2nc(-c3ccccc3)no2)C[C@@H]1N1CCOCC1 | A: 0.01803%; B: 4.675%
* COc1ccnc(N2C[C@@H](NS(=O)(=O)N(C)C)[C@H](C(C)C)C2)n1 | A: 6.12% and 25.4%; B: 5.536%
* CSCC[C@@H](CO)Nc1ccc(-c2nc(-c3ccccc3F)no2)cn1 | A: -2.054% and 24.32%; B: 19.37% and 32.1%
* CNc1cc2c(nn1)CCN(C(=O)c1cc(C)no1)C2 | A: 9.742%; B: 0.2543%
* COc1ccc(C(C)N2CCN(Cc3nccn3C)CC2)cc1Cl (centres undefined) | A: 26.01%; B: 6.675%
* [H][C@]12CC[C@@]3(N=C(C)N(C)C3=O)[C@@]1([H])CN(C(=O)Nc1ccc(F)cc1)C2 | A: -10.27%; B: -9.876%
* CCc1cc(NCCNC(C)=O)nc(N2CCCC2)n1 | A: 18.27%; B: 12.73%
* CCn1cnnc1C1CCN(C(=O)c2cccc3c2ccn3C)CC1 | A: 16.47%; B: -2.102%
* O=C(O)c1cnc(N2CCC(c3nccn3CC3CC3)CC2)c(Cl)c1 | A: 13.46%; B: 19.69%
* COCCN1CCCC(c2ccnc3c(C(N)=O)cnn23)C1 (centres undefined) | A: -19.61%; B: 4.408% and -0.5572%
* CCS(=O)(=O)CC(=O)Nc1cc(-c2cccc(F)c2F)n[nH]1 | A: -8.639%; B: -9.396% and -9.329%
* Cc1nc(Nc2nnc(C)s2)cc(C2CCCN2C2CCCC2)n1 (centres undefined) | A: -5.165%; B: -0.9436%
* CC(=O)Cn1c(C)cc(=O)c2cc(F)ccc21 | A: -8.476%; B: -10.75%
* CCn1cc(NC(=O)N2CCN(CCSc3ccccc3)CC2)cn1 | A: -0.5053% and -2.316%; B: 0.9948%
* CCc1n[nH]c(C(=O)NCCn2nccc2C)c1C | A: 5.697%; B: 5.041%
* CCn1c(N)nc2cc(C(=O)N(C)Cc3cc(C(C)(C)C)n[nH]3)cnc21 | A: 10.38%; B: -0.7251%
* O=C(O)C(F)(F)F.[H][C@@]12CN(Cc3cccs3)CCO[C@]1([H])CN(S(=O)(=O)CCC)C2 | A: -0.7924% and 9.124%; B: 2.973%
* CCOCC(O)CN1CCN(C(=O)Cc2ccccc2C)CC1 (centres undefined) | A: -2.631%; B: -9.419%
* N#Cc1cccc(CN2CCn3cc(Cn4cccn4)nc3C2)c1.O=C(O)C(F)(F)F.O=C(O)C(F)(F)F | A: -6.008%; B: -16.87%
* O=C(CCc1nc(Cl)n[nH]1)N1CCC2(CCCN(CC3CCC3)C2=O)C1 (centres undefined) | A: -1.266%; B: -34.48%
* Cc1nc2cc(C(=O)N3C[C@@H](C(=O)O)[C@H](c4ccncc4)C3)ccc2[nH]1 | A: -3.803%; B: 12.15%
* O=c1n(CCNCc2ccc(-c3ccccc3)cc2)nc2ccccn12 | A: 45.25%; B: 23.45% and 10.82%
* CC1CN(CC2CCCC2)CCN1c1ccc2nncn2n1 (centres undefined) | A: 4.427%; B: 7.873%
* CC(=O)N(Cc1noc(C2CC2)n1)C1CCN(Cc2ccccn2)C1 (centres undefined) | A: -1.181%; B: 2.193%
* CC(=O)N(Cc1ncc(C)o1)C1CCN(Cc2ccncc2Cl)C1 (centres undefined) | A: -0.9596%; B: -29.69%
* Cc1cnn(CC2CCCN2C(=O)c2c(C)noc2C)c1 (centres undefined) | A: 10.42%; B: -1.987%

5 of the entries, repeated:

Compound,A,B
COC1COC2(CCN(C(=O)c3ccccc3F)CC2)C1 (centres undefined),-2.162%,2.787%
CC(C)C[C@H](NC(=O)CNC(=O)OC(C)(C)C)C(=O)OC(C)(C)C,23.49%,5.045%
N#Cc1nccnc1N1CCC(Cc2ccccc2)C1 (centres undefined),13.57%,23.05%
N#Cc1cccc(CN2CCn3cc(Cn4cccn4)nc3C2)c1.O=C(O)C(F)(F)F.O=C(O)C(F)(F)F,-6.008%,-16.87%
O=C(O)C(F)(F)F.[H][C@@]12CN(Cc3cccs3)CCO[C@]1([H])CN(S(=O)(=O)CCC)C2,-0.7924% and 9.124%,2.973%